Results from PubChem BioAssay AID1347075 (National Center for Advancing Translational Sciences (NCATS), 2019).
Out of some 400,000 compounds screened, about 5,500 (1.4%) were called active. Inconclusive results, whose numbers are uncertain, are shown with a selection of clear calls. Calls come from the whole dose curve; as a rule, active = well fitted cell-killing curve with a large enough effect; inconclusive = small, poorly fitted or top-dose-only effect, or effect the other way; inactive = flat fitted curve, though single readings scatter. Potencies beside an inconclusive call are fits to weak or partial responses and may not hold up.

assay: qHTS assay for MDR1-selective chemotherapeutics: Primary screen using the parental adenocarcinoma cell KB-3-1; conditions: KB-3-1 viability, CellTiter-Glo ATP luminescence, 72 h; activity change, negative = cytotoxic: at 46.1 µM (top of the series); note: nearly all actives have a fitted effect of over 60% in size
Procedure, shortened: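 Here the drug-naive KB-3-1 line serves as comparator for MDR sub-line selectivity; cells received compound titrations, 72 h at 37 °C, then CellTiter-Glo readout.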
% is set by controls: 0 for no effect and ±100 for the full control effect; potency is the fitted concentration of half-maximal effect.

SMILES	Potency	activity change, negative = cytotoxic
CCOC(=O)C1=C(C)NC(=S)NC1c1ccc(-c2cccc(Cl)c2C)o1 (centres undefined)	inconclusive: 18.4 µM [cytotoxic, single point]	
C=C(C)COc1ccc(-c2[nH]ncc2Oc2ccc(OC)cc2)c(O)c1	inconclusive: 18.4 µM [cytotoxic, single point]	
Cc1cccc(Cn2c(SCc3ccc(C(=O)NC4CCCC4)cc3)nc3cccnc32)c1	inconclusive: 29.1 µM [cytotoxic, partial curve, poor fit]	
Clc1ccc(-n2ncc3c(NCCCn4ccnc4)ncnc32)cc1	inconclusive: 29.1 µM [cytotoxic, single point]	
O=C(CSc1ccccc1)NCc1ccc2c(c1)CCN2C(=O)c1ccccc1	inactive	
Cc1ccccc1C(=O)NC(CC(C)C)C(=O)Nc1cccc(S(=O)(=O)N(C)C)c1 (centres undefined)	inconclusive: 0.0065 µM [cytotoxic, full curve]	
CC1(C)Cc2nc3oc4c(=O)n(CC(=O)Nc5ccccc5)cnc4c3cc2CO1		inconclusive: 10.9%
COc1cccc(-c2ccc(C#N)c(SCC(=O)NCCc3ccccc3)n2)c1	inactive	
O=C(Nc1nc(-c2ccc3ccccc3c2)cs1)c1ccc(N2C(=O)CCC2=O)cc1	inconclusive: 29.1 µM [cytotoxic, single point]	
COC(=O)c1ccccc1NC(=O)c1ccc(-c2nc(CSc3ccc(C)cc3)c(C)o2)cc1	inactive	
Cc1ccc2nc(-c3cccc(N)c3)[nH]c2c1	inconclusive: 16.4 µM [cytotoxic, partial curve]	
COc1cccc(OC)c1C(=O)N1CCN(Cc2ccc3c(c2)OCO3)CC1	inactive	
COc1ccc(/C=C/C(=O)c2ccc3c4c(cccc24)CC3)cc1OC	inconclusive: 23.1 µM [cytotoxic, partial curve]	
N=c1c2c(-c3ccccc3)c(-c3ccccc3)n(Cc3ccccc3)c2ncn1CCCn1ccnc1	inconclusive: 1.3 µM [cytotoxic, partial curve, poor fit]	
CN(Cc1ccccc1)C(=O)CCS(=O)(=O)c1ccc2c(c1)oc(=O)n2C	inconclusive: 7.31 µM [rising, partial curve]	
CCOCCCNC(=O)c1cc2c(s1)-c1ccccc1SC2	inconclusive: 9.2 µM [rising, partial curve, poor fit]	
CCC(C)(C)n1nnnc1C(c1ccc(C)cc1)N1CCN(Cc2ccc3c(c2)OCO3)CC1 (centres undefined)	inconclusive: 29.1 µM [cytotoxic, single point]	
O=C(c1ccc(Cl)c(S(=O)(=O)N2CCCC2)c1)N1CCN(Cc2ccccc2)CC1	inconclusive: 2.31 µM [cytotoxic, full curve, poor fit]	
COc1ccccc1C(C)N(C)Cc1nc(COc2ccccc2)no1 (centres undefined)	inconclusive: 20.6 µM [rising, partial curve, poor fit]	
CN(C)c1ccc(/C=C/C=C/c2ccnc3ccccc23)cc1	active: 5.8 µM	
CCc1ccc(OCC(=O)NNC(=S)NC(=O)C2CCCCC2)c(Br)c1	inconclusive: 29.1 µM [cytotoxic, single point]	
CCOC(=O)c1cc(S(=O)(=O)N2CCN(c3cccc(C)c3C)CC2)[nH]n1	inactive	

SMILES	Potency	activity change, negative = cytotoxic
CCOC(=O)c1ccc2c(c1)nc(SCC(=O)c1ccco1)n2CC	inactive	
COCCCNCCCCOc1ccccc1-c1ccccc1	inconclusive: 16.4 µM [cytotoxic, single point]	
c1ccc(NC2=NCCN2CCCC2CCCCC2)cc1	inactive	
CCc1cccc(CC)c1NC(=O)c1ccc(-n2cncn2)nc1	inconclusive: 20.6 µM [cytotoxic, single point]	
CCN1C(=O)C(=CC=CN(C)c2ccccc2)SC1=S	inconclusive: 29.1 µM [cytotoxic, single point]	
CCOC(=O)C1=CCN(S(=O)(=O)c2ccccc2C(=O)OC)C1c1ccc(Cl)cc1 (centres undefined)	inactive	
O=C(CCl)Nc1cn(-c2ccccc2)nc1-c1ccc(F)cc1	inconclusive: 16.4 µM [cytotoxic, single point]	
Cc1sc(NC(=O)c2cc3ccccc3oc2=O)c(C(=O)OC(C)C)c1-c1ccccc1	inconclusive: 4.61 µM [cytotoxic, full curve]	
COc1cccc(N2C(N)=NC(N)=NC2(C)C)c1	inconclusive: 9.2 µM [cytotoxic, partial curve, poor fit]	
COc1ccc(C2c3cc4c(cc3OC(NNC(N)=O)C2C)OCO4)cc1 (centres undefined)	active: 6.51 µM	
O=S(=O)(Nc1ccccc1N1CCCC1)c1ccccc1C(F)(F)F	inactive	
Cc1ccc(C2(c3ccc(C)cc3)CC2C(=O)NC(C)C)cc1 (centres undefined)	inconclusive: 29.1 µM [cytotoxic, single point]	
COCc1c(C(=O)N2CCc3ccccc32)oc2ccccc12	inactive	
CCOc1cc(C(=O)NCC(C)CN(C)C)cc(OCC)c1OCC (centres undefined)	inconclusive: 16.4 µM [rising, partial curve, poor fit]	
CCOC(=O)c1ccc(/C=C2\c3ccccc3C(=O)N2c2ccccc2)cc1F	inconclusive: 29.1 µM [cytotoxic, partial curve, poor fit]	
CCCN(C(=O)C1CCCN(c2ncnc3c2nc2n3CCCCC2)C1)c1ccc(F)cc1 (centres undefined)	inconclusive: 29.1 µM [cytotoxic, single point]	
Cc1ccc(NS(=O)(=O)c2ccc(C(=O)NNC(=O)c3ccccc3O)cc2)cc1	inconclusive: 20.6 µM [cytotoxic, single point]	
Nc1nc(N2CCN(C(=O)c3ccco3)CC2)nc2ccc(Br)cc12	inconclusive: 25.9 µM [cytotoxic, single point]	
CC1CC(OCC(O)CN2CCN(Cc3ccccc3)CC2)CC(C)(C)C1 (centres undefined)	inconclusive: 32.6 µM [cytotoxic, single point]	
C=CCNC(=S)NN(c1ccccc1)c1ccccc1	inactive	
CC(C)(C)NCC(=Cc1ccccc1)C(=O)c1ccccc1	active: 5.17 µM	
CCN(C(=O)CSc1nnc2c3ccccc3n(CC)c2n1)C1CCS(=O)(=O)C1 (centres undefined)	inconclusive: 29.1 µM [rising, single point]	

Ordered by length of the SMILES (high to low): some entries from above
SMILES	Potency	activity change, negative = cytotoxic
COC(=O)c1ccccc1NC(=O)c1ccc(-c2nc(CSc3ccc(C)cc3)c(C)o2)cc1	inactive	
CCCN(C(=O)C1CCCN(c2ncnc3c2nc2n3CCCCC2)C1)c1ccc(F)cc1 (centres undefined)	inconclusive: 29.1 µM [cytotoxic, single point]	
C=CCNC(=S)NN(c1ccccc1)c1ccccc1	inactive	
